From patent US20240417359A1, “PRECURSORS OF PHENOLIC FRAGRANT COMPOUNDS” (GIVAUDAN SA, priority 2021, published 2024)

Assay: Headspace analysis of released volatiles (SPME GC-MS)
Type: physicochemical
Conditions: paper strip in headspace vial, 24 h daylight lamp, relative peak area

C=CCC(CC/C=C\CC)Oc1ccc(C=O)cc1OCC (stereo not shown) [Example 12, (Z)-4-(deca-1,7-dien-4-yloxy)-3-ethoxybenzaldehyde]
Released Volatiles (MS-TIC peak area %): 2,6-Nonadienal: 2,6-Nonadienal (4.7%), ethylvanillin | Released Volatiles (MS-TIC peak area %): ethylvanillin: (0.03%)

C=CCC(CCCCCC)Oc1ccc(C=O)cc1OCC (stereo not shown) [Example 22, 4-(dec-1-en-4-yloxy)-3-ethoxybenzaldehyde]
Released Volatiles (MS-TIC peak area %): 1-decen-4-ol: 25.5% | Released Volatiles (MS-TIC peak area %): 2-Nonenal: 4.1% | Released Volatiles (MS-TIC peak area %): 3-decen-2-one: 5.1% | Released Volatiles (MS-TIC peak area %): ethylvanillin: 0.05%

CC/C=C/CC(CCCCCCCCC)Oc1ccc(C=O)cc1OCC (stereo not shown) [Example 29, (E)-3-ethoxy-4-(pentadec-3-en-6-yloxy)benzaldehyde]
Released Volatiles (MS-TIC peak area %): 2-dodecenal: 1.2% | Released Volatiles (MS-TIC peak area %): Decanal: 4.7% | Released Volatiles (MS-TIC peak area %): ethylvanillin: ethylvanillin (0.02%)

CC/C=C\C/C=C\CCOc1ccc(C=O)cc1OCC [Example 30, 3-ethoxy-4-(((3Z,6Z)-nona-3,6-dien-1-yl)oxy)benzaldehyde]
Released Volatiles (MS-TIC peak area %): 1-penten-3-ol: 11.8% | Released Volatiles (MS-TIC peak area %): 2-Pentenal: 13.1% | Released Volatiles (MS-TIC peak area %): 2-hexenal: 2-hexenal (11.4%), nona-3,6-dien-1-ol, | Released Volatiles (MS-TIC peak area %): ethylvanillin: 0.8% | Released Volatiles (MS-TIC peak area %): nona-3,6-dien-1-ol: 8.0%

CCOc1cc(C=O)ccc1OCCC=C(C)CCc1ccccc1 [Example 47, 3-ethoxy-4-((4-methyl-6-phenylhex-3-en-1-yl)oxy)benzaldehyde]
Released Volatiles (MS-TIC peak area %): benzylacetone: benzylacetone (45.5%), | Released Volatiles (MS-TIC peak area %): ethylvanillin: ethylvanillin (0.5%)

CCOc1cc(C=O)ccc1OCC/C=C(\C)c1ccc2ccccc2c1 [Example 51, (E)-3-ethoxy-4-((4-(naphthalen-2-yl)pent-3-en-1-yl)oxy)benzaldehyde]
Released Volatiles (MS-TIC peak area %): 2-acetyl naphtalene: 12.8% | Released Volatiles (MS-TIC peak area %): ethylvanillin: 1.0%

COC(=O)c1ccccc1OCCC=C(C)CCc1ccccc1 [Example 56, methyl 2-((4-methyl-6-phenylhex-3-en-1-yl)oxy)benzoate]
Released Volatiles (MS-TIC peak area %): 4-phenyl-2-butanone: butanone (5.2%) | Released Volatiles (MS-TIC peak area %): methyl salicylate: methyl salicylate (21.7%), 4-phenyl-2-

C=CCC(Oc1ccc(C=O)cc1OCC)c1ccccc1 (stereo not shown) [Example 68, 3-ethoxy-4-((1-phenylbut-3-en-1-yl)oxy)benzaldehyde]
Released Volatiles (MS-TIC peak area %): 1-phenylbut-3-en-1-ol: 21% | Released Volatiles (MS-TIC peak area %): acetophenone: 1.8% | Released Volatiles (MS-TIC peak area %): benzaldehyde: benzaldehyde (12.7%), acetophenone | Released Volatiles (MS-TIC peak area %): cinnamaldehyde: cinnamaldehyde (0.3%), ethylvanillin | Released Volatiles (MS-TIC peak area %): ethylvanillin: (0.3%)
